From US20060051395A1 (AFFINERGY, published 2006)
Results are given in words; binding and its absence hold for the method and conditions named. Some binding calls cover weakened binding; strength is not graded here.

Tests used:
[1] = molecular target: T1, Bone Morphogenic Protein 2 (BMP-2) (UniProt P12643); test: phage ELISA on biotinylated BMP-2 on streptavidin plates, anti-M13-HRP
T1 sequence (looked up): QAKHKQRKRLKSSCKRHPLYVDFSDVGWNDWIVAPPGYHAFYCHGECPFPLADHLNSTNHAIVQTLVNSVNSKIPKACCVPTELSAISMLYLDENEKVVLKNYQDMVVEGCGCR

[2] = molecular target: T1, Bone Morphogenic Protein 2 (BMP-2); test: phage ELISA on BMP-2, A405 against microliters of phage; order of signal at 0.10 microliters of phage (6th of 9 lines)
[3] = molecular target: T1, Bone Morphogenic Protein 2 (BMP-2); test: phage ELISA on BMP-2, A405 against microliters of phage; order of signal at 0.10 microliters of phage (7th of 9 lines, just above mAEK vector)
[4] = molecular target: T1, Bone Morphogenic Protein 2 (BMP-2); test: phage ELISA on BMP-2, A405 against microliters of phage; order of signal at 0.10 microliters of phage (5th of 9 lines)
[5] = molecular target: T1, Bone Morphogenic Protein 2 (BMP-2); test: solution-phase binding assay, A405 against picomoles of BMP; order of signal (4th of 6 lines)
[6] = molecular target: T1, Bone Morphogenic Protein 2 (BMP-2); test: solution-phase binding assay, A405 against picomoles of BMP; order of signal (6th of 6 lines)
[7] = molecular target: T1, Bone Morphogenic Protein 2 (BMP-2); test: phage ELISA on BMP-2

SSSVDLYFPLKGDVVSR [AP02-59]
binding [1]: binds | binding [2]: binds

SSGGIASLKYDVVKTWESR [AP02-44]
binding [1]: binds | binding [3]: binds

SSSNSLWFPLRGSTVEVGASR [AP02-35]
binding [1]: binds | binding [4]: binds

SSFEPLRFPLKGVPVSR (biotin on the epsilon amino group of a lysine residue at the C-terminus) [AFF-2009]
binding [5]: binds

SSSVDLYFPLKGDVVSR (biotin on the epsilon amino group of a lysine residue at the C-terminus) [AFF-2012]
binding [6]: binds

SSADRVAWPLKGAPVWVKESR [AP02-37]
binding [7]: no binding
